Laboratory results reported in PubChem BioAssay (EPA / NIEHS).
For some of these results: Shown are results outside the selection of hits, which stands elsewhere. Results filed as inconclusive are left out. Where a structure was tested more than once in an assay, its records may differ in their call. The entries are a selection whose mix differs from that of the whole data set. Activity calls are given as the source filed them. How the source made its calls, unless noted: active means hit-call score of the fitted dose curve at least 0.9, where 1 is the maximum; inconclusive means response in the unintended direction; inactive means score below 0.9.

By UniProt entry, the sequences of proteins in these tests, tags left out. Where a name states a change or a piece, a line headed by the entry shows the natural chain unless it says otherwise.
UniProt P03372, whole entry, looked up: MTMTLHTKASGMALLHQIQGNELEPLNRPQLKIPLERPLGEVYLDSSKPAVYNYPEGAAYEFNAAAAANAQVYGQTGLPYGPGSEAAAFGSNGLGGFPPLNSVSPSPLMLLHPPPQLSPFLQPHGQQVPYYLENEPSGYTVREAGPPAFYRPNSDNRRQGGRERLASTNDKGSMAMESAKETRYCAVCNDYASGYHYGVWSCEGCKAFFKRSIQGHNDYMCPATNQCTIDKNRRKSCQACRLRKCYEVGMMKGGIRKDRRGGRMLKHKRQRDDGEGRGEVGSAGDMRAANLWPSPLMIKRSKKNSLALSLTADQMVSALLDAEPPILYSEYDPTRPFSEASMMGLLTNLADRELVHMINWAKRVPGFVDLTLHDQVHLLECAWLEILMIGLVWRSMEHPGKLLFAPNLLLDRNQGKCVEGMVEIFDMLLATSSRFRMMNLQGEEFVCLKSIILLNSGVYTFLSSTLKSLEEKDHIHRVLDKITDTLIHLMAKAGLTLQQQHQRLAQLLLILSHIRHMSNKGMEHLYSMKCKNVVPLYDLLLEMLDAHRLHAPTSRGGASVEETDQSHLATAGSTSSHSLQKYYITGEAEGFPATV
UniProt Q9QYN8: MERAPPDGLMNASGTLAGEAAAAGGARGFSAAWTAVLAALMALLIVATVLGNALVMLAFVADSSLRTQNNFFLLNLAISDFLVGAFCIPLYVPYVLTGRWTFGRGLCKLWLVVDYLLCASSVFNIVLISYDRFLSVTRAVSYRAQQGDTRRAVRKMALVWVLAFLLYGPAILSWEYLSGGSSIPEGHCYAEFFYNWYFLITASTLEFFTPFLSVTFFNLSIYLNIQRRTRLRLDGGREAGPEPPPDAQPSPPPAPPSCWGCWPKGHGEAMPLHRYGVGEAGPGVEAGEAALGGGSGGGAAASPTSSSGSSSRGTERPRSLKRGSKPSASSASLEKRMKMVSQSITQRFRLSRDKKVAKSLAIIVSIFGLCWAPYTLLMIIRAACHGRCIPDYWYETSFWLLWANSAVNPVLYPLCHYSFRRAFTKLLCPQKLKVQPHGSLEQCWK
UniProt P19793: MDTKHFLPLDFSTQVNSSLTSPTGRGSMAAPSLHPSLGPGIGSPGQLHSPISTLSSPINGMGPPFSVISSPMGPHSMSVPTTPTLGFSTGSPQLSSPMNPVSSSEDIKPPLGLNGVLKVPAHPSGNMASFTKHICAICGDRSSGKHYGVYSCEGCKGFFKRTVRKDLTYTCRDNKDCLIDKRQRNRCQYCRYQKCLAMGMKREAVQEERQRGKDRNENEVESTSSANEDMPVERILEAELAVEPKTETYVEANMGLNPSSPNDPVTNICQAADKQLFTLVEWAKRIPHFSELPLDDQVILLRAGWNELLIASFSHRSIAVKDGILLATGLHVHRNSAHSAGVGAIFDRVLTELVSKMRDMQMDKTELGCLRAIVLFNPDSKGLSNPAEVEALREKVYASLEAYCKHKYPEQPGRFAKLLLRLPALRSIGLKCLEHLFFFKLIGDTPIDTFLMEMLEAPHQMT
UniProt P37231: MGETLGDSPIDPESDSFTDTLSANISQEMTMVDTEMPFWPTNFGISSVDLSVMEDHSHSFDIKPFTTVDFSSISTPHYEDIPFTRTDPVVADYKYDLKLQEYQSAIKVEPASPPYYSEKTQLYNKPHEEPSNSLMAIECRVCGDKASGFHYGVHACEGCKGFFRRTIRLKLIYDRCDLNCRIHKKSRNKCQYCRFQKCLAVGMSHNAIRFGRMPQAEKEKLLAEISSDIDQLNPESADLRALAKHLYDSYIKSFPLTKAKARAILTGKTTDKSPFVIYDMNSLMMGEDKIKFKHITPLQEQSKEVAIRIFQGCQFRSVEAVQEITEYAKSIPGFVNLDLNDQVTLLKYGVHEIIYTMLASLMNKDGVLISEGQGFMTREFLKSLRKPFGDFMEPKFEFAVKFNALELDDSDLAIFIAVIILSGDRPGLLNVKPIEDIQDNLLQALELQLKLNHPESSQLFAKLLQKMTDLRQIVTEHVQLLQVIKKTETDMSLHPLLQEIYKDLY
UniProt P10275: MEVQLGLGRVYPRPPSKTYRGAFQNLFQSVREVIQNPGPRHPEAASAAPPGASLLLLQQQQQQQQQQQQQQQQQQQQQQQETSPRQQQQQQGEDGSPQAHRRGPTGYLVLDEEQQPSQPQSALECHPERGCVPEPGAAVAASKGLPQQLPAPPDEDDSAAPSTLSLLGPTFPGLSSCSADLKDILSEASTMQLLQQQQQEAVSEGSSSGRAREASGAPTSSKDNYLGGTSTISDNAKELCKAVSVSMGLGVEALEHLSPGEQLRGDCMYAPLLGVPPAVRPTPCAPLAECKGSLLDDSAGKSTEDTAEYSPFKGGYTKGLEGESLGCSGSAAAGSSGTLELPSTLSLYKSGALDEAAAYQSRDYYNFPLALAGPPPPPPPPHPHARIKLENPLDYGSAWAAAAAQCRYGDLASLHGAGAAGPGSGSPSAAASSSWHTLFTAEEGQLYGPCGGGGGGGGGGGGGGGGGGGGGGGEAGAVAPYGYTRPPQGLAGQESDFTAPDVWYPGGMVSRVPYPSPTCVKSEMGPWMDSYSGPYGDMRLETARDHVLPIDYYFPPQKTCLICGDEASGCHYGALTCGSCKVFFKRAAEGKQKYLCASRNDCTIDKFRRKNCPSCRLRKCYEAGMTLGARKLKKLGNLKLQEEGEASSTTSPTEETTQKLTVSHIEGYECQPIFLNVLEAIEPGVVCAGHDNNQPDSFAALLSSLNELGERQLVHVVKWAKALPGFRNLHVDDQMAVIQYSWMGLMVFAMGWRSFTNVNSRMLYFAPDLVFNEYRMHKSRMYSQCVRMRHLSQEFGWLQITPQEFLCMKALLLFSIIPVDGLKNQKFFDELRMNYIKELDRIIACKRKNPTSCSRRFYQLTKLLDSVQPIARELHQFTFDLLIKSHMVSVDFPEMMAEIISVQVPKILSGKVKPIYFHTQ

Tests used:
[1] = target: Estrogen receptor (Homo sapiens) (UniProt P03372); assay: OT_ER_ERaERa_1440: Odyssey Thera (OT) 24-hour HEK293T Protein-Complementation Assay for Estrogen Receptor-alpha/-alpha Homodimer (AID 2283349);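 further: hits raise fluorescence above DMSO for agonists and antagonists alike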
Summary of the method: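 HEK293T cells stably expressing the human ER alpha ligand-binding domain (aa 310-547) as a homodimer PCA were dosed for 24 hours. Fluorescence intensity was read by laser scanning cytometry, and gain of signal was fitted relative to DMSO vehicle.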

[2] = target: Estrogen receptor (Homo sapiens) (UniProt P03372); assay: OT_ERa_GFPERaERE_0120: Odyssey Thera (OT) 2-hour HeLa Transcription Induction Assay for Estrogen Receptor (AID 2283382)
Summary of the method: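 Measures ESR1 pathway reporter gain-of-signal in HeLa cells after a 2-hour treatment, detected as fluorescent protein induction by microscopy, DMSO as baseline.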

[3] = ACEA_AR_agonist_AUC_viability: ACEA Biosciences xCELLigence Real-Time Cell Analysis on Androgen Receptor Agonism for Viability (AID 2283775)
Summary of the method: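 Read-out is area under the impedance curve at 80 h post-dose in 22Rv1 cells, with DMSO as baseline and signal loss taken as reduced viability. Compounds ran in duplicate from 100 uM final.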

[4] = target: rat Histamine Receptor (H3), Hrh3 (gene 85268) (UniProt Q9QYN8); assay: NVS_GPCR_rH3: NovaScreen (NVS) G Protein-Coupled Receptor Assay for rat Histamine Receptor (H3) (AID 2283303)
Summary of the method: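 Rat forebrain membranes incubated 1 h with compound; radioligand displacement measured by filter-based scintillation counting. Single-concentration duplicates at 25 µM, then concentration-response up to 50 µM, relative to DMSO.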

[5] = CEETOX_H295R_OHPROG: CeeTox H295R High-throughput Steroidogenesis Assay for OH-Progesterone (OHPROG) (AID 2283435; active means hit-call score of the fitted dose curve at least 0.9, where 1 is the maximum; inactive means score below 0.9;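 further: human adrenal H295R cells primed 48 h with 10 µM forskolin; 17alpha-hydroxyprogesterone secreted into medium measured by HPLC-MS/MS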); conditions: actives raise or lower the signal
[6] = CEETOX_H295R_PROG: CeeTox H295R High-throughput Steroidogenesis Assay for Progesterone (PROG) (AID 2283442; active means hit-call score of the fitted dose curve at least 0.9, where 1 is the maximum; inactive means score below 0.9;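 further: human H295R adrenal cells primed with 10 µM forskolin before dosing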); conditions: actives raise or lower the signal
Summary of the method: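 Measured analyte is progesterone secreted by H295R cells at 48 h of chemical treatment, following 10 uM forskolin priming. Quantitation used HPLC-MS/MS against a 7-point standard curve; cytotoxicity was checked by MTT absorbance.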

[7] = TOX21_PR_LUC_Followup_Agonist_viability: Viability Assessment in the Tox21 HEK293 Progesterone Receptor (PR) Agonism Luciferase Follow-Up Assay (AID 2283941);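 further: compound exposure 16 h at 37 °C; loss of signal means cytotoxicity so actives lower viability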
Summary of the method: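 Luminescent ATP quantitation (CellTiter-Glo) serves as the read-out; a drop flags cytotoxic compounds. Cells are HEK293-PR-A-luc grown in 10% charcoal-stripped FBS, plated 3,000/well, and exposed to compound for 16 h.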

[8] = target: Retinoic acid receptor RXR-alpha (Homo sapiens) (UniProt P19793); assay: OT_NURR1_NURR1RXRa_1440: Odyssey Thera (OT) 24-hour HEK293T Protein Complementation Assay for Nurr1/retinoid X receptor (RXR) (AID 2283386)
Summary of the method: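 Measured as fluorescence from a reconstituted split reporter, this 24 h HEK293T complementation assay scores compound-induced gain of Nurr1/RXRα association relative to DMSO.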

[9] = target: Peroxisome proliferator-activated receptor gamma (Homo sapiens) (UniProt P37231); assay: OT_PPARg_PPARgSRC1_0480: Odyssey Thera (OT) 8-hour Protein-Complementation Assay for Peroxisome Proliferator-activated Receptor Gamma / SRC-1 Co-activator (AID 2283387);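 further: nuclear to cytoplasmic split Venus YFP fluorescence ratio reporting PPARg SRC-1 interaction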
Summary of the method: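 Split-YFP (IFP1/IFP2) PPARg/SRC-1 reporter, HEK293T, 37 °C, 5% CO2; 8 h compound; formaldehyde fix + Draq5; high-content imaging, N/C ratio, ≥350 cells/image, positive direction vs DMSO.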

[10] = read-out: flavin-containing dimethylaniline monooxygenases 3 (FMO3), FMO3 (gene 2328); assay: LTEA_HepaRG_FMO3: Life Technologies and Expression Analysis (LTEA) Assay for flavin-containing dimethylaniline monooxygenases 3 (FMO3) using HepaRG (AID 2283453; active means hit-call score of the fitted dose curve at least 0.9, where 1 is the maximum; inactive means score below 0.9); conditions: actives raise or lower the signal; mRNA level, 48 h
Summary of the method: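 HepaRG, 48 h exposure, 8-pt half-log series from 100 uM, 0.5% DMSO vehicle, duplicates; FMO3 transcript by Fluidigm TaqMan qRT-PCR, housekeeping-normalized; gain/loss fit vs DMSO.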

[11] = read-out: Bcl-2 (BAD) gene, BAD (gene 572); assay: LTEA_HepaRG_BAD: Life Technologies and Expression Analysis (LTEA) Assay for Bcl-2 (BAD) gene using HepaRG (AID 2283469; active means hit-call score of the fitted dose curve at least 0.9, where 1 is the maximum; inactive means score below 0.9); conditions: actives raise or lower the signal; mRNA level, 48 h
Summary of the method: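 Differentiated HepaRG cells were exposed in duplicate in 0.5% DMSO for 48 h to eight-point half-log concentrations up to 100 uM. BAD mRNA was measured by Fluidigm TaqMan qRT-PCR, normalized to ACTB, GAPDH and POLR2A, and fitted bidirectionally against DMSO.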

[12] = read-out: Bcl-2 (BAX) gene, BAX (gene 581); assay: LTEA_HepaRG_BAX: Life Technologies and Expression Analysis (LTEA) Assay for Bcl-2 (BAX) gene using HepaRG (AID 2283470; active means hit-call score of the fitted dose curve at least 0.9, where 1 is the maximum; inactive means score below 0.9); conditions: actives raise or lower the signal; mRNA level, 48 h
Summary of the method: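 Concentration-response endpoint fitted in both directions relative to 0.5% DMSO vehicle. Human HepaRG cultures receive test chemicals for 48 h at up to 100 uM; BAX mRNA is quantified by qRT-PCR against housekeeping genes.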

[13] = read-out: Ezrin (EZR), EZR (gene 7430); assay: LTEA_HepaRG_EZR: Life Technologies and Expression Analysis (LTEA) Assay for Ezrin (EZR) using HepaRG (AID 2283491; active means hit-call score of the fitted dose curve at least 0.9, where 1 is the maximum; inactive means score below 0.9); conditions: actives raise or lower the signal; mRNA level, 48 h
Method: LTEA_HepaRG is a cell based, multiplexed-readout assay that uses HepaRG, a human liver cell line, with measurements taken at 48 hours after chemical dosing on a 96-well plate.LTEA_HepaRG_EZR is one of 102 assay component(s) measured in the LTEA HepaRG cell culture assay. It is a marker of Cellular remodeling.Data from the assay component LTEA_HepaRG_EZR was analyzed into 1 endpoint. This assay endpoint, LTEA_HepaRG_EZR, was analyzed with bidirectional fitting relative to DMSO as the negative control and baseline of activity. Using a type of inducible reporter, measures of mRNA induction for gain or loss-of-signal activity can be used to understand regulation of transcription factor activity. To generalize the intended target to other relatable targets, this assay endpoint is annotated to the membrane protein intended target family, where the subfamily is Cellular remodeling.
A total of 1060 chemcials from the ToxCast library were tested in eight-point concentration-response experiments. Cell culture and cytotoxicity assays were conducted at Thermo Fisher Scientific's Custom Services facility (Madison, WI). […] Fluidigm's 96.96 Dynamic ArrayTM (Fluidigm, Amsterdam, the Netherlands) technology was used for gene expression analyses by quantitative reverse transcription polymerase chain reaction (qRT-PCR, performed by Quintiles/Expression Analysis, Durham, NC)89. […]

[14] = read-out: Intercellular Adhesion Molecule 1 (ICAM1), ICAM1 (gene 3383); assay: LTEA_HepaRG_ICAM1: Life Technologies and Expression Analysis (LTEA) Assay for Intercellular Adhesion Molecule 1 (ICAM1) using HepaRG (AID 2283507; active means hit-call score of the fitted dose curve at least 0.9, where 1 is the maximum; inactive means score below 0.9); conditions: actives raise or lower the signal; mRNA level, 48 h
Summary of the method: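 Using the human liver line HepaRG, compounds are tested in duplicate over 48 h at concentrations up to 100 uM. Expression is determined by TaqMan qRT-PCR, normalized to endogenous controls, and analysed relative to 0.5% DMSO vehicle.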

[15] = read-out: MicroRNA 122 (MIR122), gene 406906; assay: LTEA_HepaRG_MIR122: Life Technologies and Expression Analysis (LTEA) Assay for MicroRNA 122 (MIR122) using HepaRG (AID 2283516; active means hit-call score of the fitted dose curve at least 0.9, where 1 is the maximum; inactive means score below 0.9; further: the transcript read is the microRNA miR-122); conditions: actives raise or lower the signal; mRNA level, 48 h
Summary of the method: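 HepaRG, 48 h exposure, 8-pt half-log from 100 uM, 0.5% DMSO; TaqMan qRT-PCR; bidirectional fit vs DMSO.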

[16] = target: Retinoic acid receptor RXR-alpha (Homo sapiens) (UniProt P19793); assay: OT_NURR1_NURR1RXRa_0480: Odyssey Thera (OT) 8-hour HEK293T Protein Complementation Assay for Nurr1/retinoid X receptor (RXR) (AID 2283385)
Summary of the method: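 Compounds are applied to HEK293T cells carrying Nurr1 and RXRα linked to reporter fragments. After 8 h, fluorescence intensity reports heterodimer formation, with DMSO as baseline.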

[17] = ACEA_AR_antagonist_AUC_viability: ACEA Biosciences xCELLigence Real-Time Cell Analysis on Androgen Receptor Antagonism for Viability (AID 2283776);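 further: 22Rv1 human prostate cancer cells growing on impedance electrode plates; area under impedance growth curve at 80 h after dosing as viability; hits lower the growth signal relative to DMSO meaning cytotoxicity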
Summary of the method: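 Viability endpoint from label-free cell-index monitoring: 22Rv1 cultures treated with an eight-point 1:4 dilution series starting at 100 uM final, AUC at 80 h fitted against DMSO.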

[18] = target: Nuclear receptor subfamily 1 group I member 2 (Mus musculus) (UniProt O54915); assay: ATG_mPXR_XSP2: Attagene TRANS-FACTORIAL Multi-Species (XSP1) HepG2 Assay for mouse Pregnane X Receptor (PXR) (AID 2283831)
Summary of the method: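 Fluorescence signals from capillary electrophoresis of RT-PCR-amplified reporter mRNA give the readout, gain-of-signal versus DMSO. Transfected HepG2 cells, 24 h dosing, medium contained 3 nM 6-alpha-fluorotestosterone and 1.5 nM norgestrel.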

[19] = tested on: Sodium/Iodide Symporter (NIS), SLC5A5 (gene 6528); assay: CPHEA_Stoker_NIS_Inhibition_RAIU: CPHEA's Radioactive Iodide Uptake (RAIU) Assay for Sodium/Iodide Symporter (NIS) Inhibition, Stoker and Laws Labs (AID 2283841)
Summary of the method: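 Test chemicals, six concentrations from 0.001 to 100uM in 0.5% DMSO, were co-incubated with carrier-free 125I (final 329pM) on hNIS-HEK293T-EPA monolayers in pH 7.4 HEPES-buffered HBSS. Plates stood 2 hours at room temperature, then were washed cold and counted.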

[20] = target: Peroxisome proliferator-activated receptor gamma (Homo sapiens) (UniProt P37231); assay: OT_PPARg_PPARgSRC1_1440: Odyssey Thera (OT) 24-hour Protein-Complementation Assay for Peroxisome Proliferator-activated Receptor Gamma/ SRC-1 Co-activator (AID 2283388);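 further: nuclear to cytoplasmic ratio of reconstituted Venus YFP fluorescence in fixed imaged cells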
Summary of the method: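 Cells carrying the PPARg/SRC-1 fragment-complementation reporter receive compound for 24 hours, are fixed and counterstained with Draq5, then imaged. Increased nuclear relative to cytoplasmic YFP fluorescence above DMSO baseline indicates binding activity.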

[21] = CEETOX_H295R_OHPREG: CeeTox H295R High-throughput Steroidogenesis Assay for OH-Pregnenolone (OHPREG) (AID 2283434; active means hit-call score of the fitted dose curve at least 0.9, where 1 is the maximum; inactive means score below 0.9); conditions: actives raise or lower the signal
[22] = CEETOX_H295R_ANDR: CeeTox H295R High-throughput Steroidogenesis Assay for Androstenedione (ANDR) (AID 2283436; active means hit-call score of the fitted dose curve at least 0.9, where 1 is the maximum; inactive means score below 0.9;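 further: human H295R adrenal cells exposed for 48 h with androstenedione measured in medium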); conditions: actives raise or lower the signal
Summary of the method: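 H295R cells, following OECD 456 with minor changes, exposed to chemicals for 48 h. Androstenedione in the medium was quantified by HPLC-MS/MS after MTBE extraction. Fitting was bidirectional versus DMSO; chemicals were diluted until MTT viability was ≥70%.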

[23] = TOX21_TR_RXR_BLA_Agonist_Followup_viability: Viability Assessment in the Tox21 Thyroid Hormone Receptor beta Retinoid X Receptor alpha (RXRa) Agonism Beta-lactamase (BLA) Follow-Up Assay (AID 2283970)
[24] = target: Nucleoli Translocation, AR (gene 367) (UniProt P10275); assay: UPITT_HCI_U2OS_AR_TIF2_Nucleoli_Antagonist: University of Pittsburgh U2OS Androgen Receptor-Transcriptional Intermediary Factor 2 (AR-TIF2) Antagonism High Content Imaging Assay for Nucleoli Translocation (AID 2283997)
Summary of the method: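 U2OS cells co-expressing red-fluorescent-tagged human AR and green-fluorescent-tagged TIF2, imaged by high-content microscopy for nucleolar red fluorescence. Antagonist mode against DHT; primary screen at 20 uM final (0.2% DMSO).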

[25] = read-out: CYP2C9 (gene 1559); assay: LTEA_HepaRG_CYP2C9: Life Technologies and Expression Analysis (LTEA) Assay for CYP2C9 using HepaRG (AID 2283484; active means hit-call score of the fitted dose curve at least 0.9, where 1 is the maximum; inactive means score below 0.9); conditions: actives raise or lower the signal; mRNA level, 48 h
Summary of the method: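 Differentiated human HepaRG cells in serum-free induction medium were exposed 48 h to chemicals in 8-point half-log series from 100 uM (0.5% DMSO), in duplicate. CYP2C9 mRNA was measured by qRT-PCR, normalized to ACTB/GAPDH/POLR2A, with bidirectional fitting versus DMSO.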

O=S(=O)(O)c1ccccc1C=Cc1ccc(-c2ccc(C=Cc3ccccc3S(=O)(=O)O)cc2)cc1
outcome [1]: inactive
outcome [2]: inactive
outcome [3]: inactive

Oc1ccc2ccccc2c1N=Nc1ccccc1
outcome [4]: inactive
AC50 [5]: active: 4.96 µM
AC50 [6]: active: 4.96 µM
outcome [7]: inactive

CC1CC(OC(=O)c2ccccc2O)CC(C)(C)C1 (stereo unspecified)
AC50 [8]: active: 76.7 µM

COS(C)(=O)=O
outcome [2]: inactive

CCCOC(=O)c1cc(O)c(O)c(O)c1
outcome [9]: inactive
outcome [10]: inactive
outcome [11]: inactive
outcome [12]: inactive
outcome [13]: inactive
outcome [14]: inactive
outcome [15]: inactive

O=C(Oc1ccccc1)c1ccc(O)cc1
outcome [16]: inactive
outcome [17]: inactive
outcome [18]: inactive
outcome [19]: inactive

O=S(=O)(O)c1cccc2ccccc12
outcome [20]: inactive

CSC(=O)c1cccc2nnsc12
outcome [16]: inactive

CC(C)(C)NC(=O)[C@H]1CC[C@H]2[C@@H]3CC[C@H]4NC(=O)C=C[C@]4(C)[C@H]3CC[C@]12C
outcome [2]: inactive
AC50 [21]: active: 50 µM

O=C(O)CN(CC(=O)O)CC(=O)O
outcome [20]: inactive
outcome [21]: inactive

Cc1cc(NC(=O)C(=O)O)cc(C)c1Oc1ccc(O)c2c1CCC2
AC50 [22]: active: 50 µM
outcome [23]: inactive
outcome [24]: inactive

CN1CCCC1=O
outcome [20]: inactive
outcome [25]: inactive
